# Primary screen of a compound library

Sequences of proteins named here, by UniProt entry; tags and fusion partners are left off.
UniProt E9BF75, entry or part of it: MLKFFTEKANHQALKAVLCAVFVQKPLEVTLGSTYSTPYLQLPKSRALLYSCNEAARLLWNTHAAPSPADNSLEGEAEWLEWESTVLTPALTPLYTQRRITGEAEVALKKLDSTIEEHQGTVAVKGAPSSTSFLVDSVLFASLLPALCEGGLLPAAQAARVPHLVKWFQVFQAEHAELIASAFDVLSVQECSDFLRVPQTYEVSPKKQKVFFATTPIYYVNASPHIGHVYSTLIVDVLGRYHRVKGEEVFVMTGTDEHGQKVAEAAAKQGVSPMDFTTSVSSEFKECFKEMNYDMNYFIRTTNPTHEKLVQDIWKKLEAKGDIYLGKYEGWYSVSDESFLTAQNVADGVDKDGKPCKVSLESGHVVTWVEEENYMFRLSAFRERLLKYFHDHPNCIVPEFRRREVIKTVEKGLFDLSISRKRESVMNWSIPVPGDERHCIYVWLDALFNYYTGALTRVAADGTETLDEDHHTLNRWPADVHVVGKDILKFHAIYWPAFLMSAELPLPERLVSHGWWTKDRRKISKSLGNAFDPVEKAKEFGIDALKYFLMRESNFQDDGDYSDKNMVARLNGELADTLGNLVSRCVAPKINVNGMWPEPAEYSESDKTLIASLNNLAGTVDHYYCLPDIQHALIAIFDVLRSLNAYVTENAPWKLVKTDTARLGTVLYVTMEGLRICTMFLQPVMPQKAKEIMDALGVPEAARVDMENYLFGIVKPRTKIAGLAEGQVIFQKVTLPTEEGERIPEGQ

From ChEMBL document CHEMBL3988442, “University of Dundee, Small-Polar-MMV Screening Library” (2021).

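Methionyl-tRNA synthetase (putative), Leishmania donovani (UniProt E9BF75). Primary screen of methionyl-tRNA synthetase; the read-out is not stated. The test concentration is not given. Values are per cent inhibition. About 68,000 compounds were tested under these conditions; 0.035% (about 24) showed 50% or more at least once.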

Results are percentages, as filed.
The controls that fix the scale are not given in the record; negative values are as filed.
Compounds were drawn at random from those tested, without regard to their results.

With COc1ccccc1OCCNC(=O)CN1CCc2cncnc2C1 the screen gave 17.71%.
With OC1CCCN(Cc2c(-c3ccco3)[nH]c3ncccc23)C1 (centres undefined) the screen gave 15.41%.
With Cc1nc(-c2cc(Cl)cc3c2OC(CN)C3)c[nH]1 (centres undefined) the screen gave 13.17%.
With COc1ccccc1OC1CCN(C(=O)C2CCCN(C)C2)CC1 (centres undefined) the screen gave 16.19%.
With O=C(Nc1ccccc1)C1=NOC2(CCCN(C(=O)N3CCCC3)C2)C1 (centres undefined) the screen gave 3.553%.
With Cc1c(C(=O)N2CCS(=O)(=O)CC2)nnn1-c1ccc2ncccc2c1 the screen gave 7.283%.
With Cc1cc(CC(=O)NC2CCCN(c3ccccc3Cl)C2=O)n[nH]1 (centres undefined) the screen gave 13%.
With COc1ccc(CC(=O)N2CCCC2Cn2cccn2)cc1F (centres undefined) the screen gave 12.6%.
With O=C(Cc1cccs1)NS(=O)(=O)c1cccc2cnccc12 the screen gave 12.57%.
With O=C(c1cccc(=O)[nH]1)N(Cc1ccsc1)CC1CCCO1 (centres undefined) the screen gave 6.884%.
With CCn1nccc1CNC(=O)C1CCCC1 the screen gave 6.299%.
With COc1cc(C)c(C(C)NC(=O)Nc2nnc(C)s2)cc1OC (centres undefined) the screen gave 5.576%.
With COc1ccc(-c2cc(C3CCN(C(C)=O)CC3)ccn2)cc1 the screen gave 15.25%.
With COc1ccc([C@@H]2CN(C(=O)CCc3cc(Cl)no3)C[C@H]2N(C)C)cc1 the screen gave 21.77%.
With CC(=O)c1c(O)n(C)c2ccccc12 the screen gave 12.11%.
With CCCNC(=O)C(C)Oc1ccccc1 (centres undefined) the screen gave 7.116%.
With CC(C)c1ccc(C2CC(=O)Nc3c2cnn3C)cc1 (centres undefined) the screen gave 2.586%.
With CCN1CC(CN2CCOCC2)Oc2ncccc2C1=O (centres undefined) the screen gave 5.135%.
With O=C1C(N2CCN(c3ccc(O)cc3)CC2)CCN1C1CCOCC1 (centres undefined) the screen gave 9.669%.
With OC1(CNCCc2csc(-c3ccncc3)n2)CCCNC1 (centres undefined) the screen gave 19.4%.
With CCSC(C)c1nc(-c2ccc(C)nn2)no1 (centres undefined) the screen gave -14.46%.
With Cc1ccc(N2CCCC(NCc3c(C)noc3C)C2)nn1 (centres undefined) the screen gave 20.22%.
With N#Cc1ccc(N2CCCN(c3nccs3)CC2)nc1 the screen gave 6.522%.
With Fc1cccc(-c2nc(CN3CCCCC3Cn3cncn3)co2)c1 (centres undefined) the screen gave 0.4695%.
With CCCSCC(=O)N1CCCC(c2nccn2Cc2ccncc2)C1 (centres undefined) the screen gave 12.06%.
With Cc1noc([C@@H]2CC[C@@H]3[C@@H](CCN3S(=O)(=O)c3ccccc3)O2)n1 the screen gave 21.61%.
With N#CCCN(Cc1ccco1)C(=O)Cc1ccc(-n2cnnn2)cc1 the screen gave 7.143%.
With Cc1cc(NC(=O)c2ccc(N3CCOCC3)c(F)c2)[nH]n1 the screen gave 8.6%.
With O=C(C1CC1)N1CCC2(CC1)CNCc1ccccc12 the screen gave 3.986%.
With Cc1c(NC(=O)NC2CCCC2)cccc1C(=O)N1CCSCC1 the screen gave 12.53%.
With CC(C)c1ncc2c(n1)CN(Cc1cccc(C#N)c1)CC2 the screen gave 9.184%.

The last 2 entries again:

{"structure": "Cc1c(NC(=O)NC2CCCC2)cccc1C(=O)N1CCSCC1", "inhibition": 12.53}
{"structure": "CC(C)c1ncc2c(n1)CN(Cc1cccc(C#N)c1)CC2", "inhibition": 9.184}